Laboratory results reported in PubChem BioAssay AID1508600 (Functional Genomics Laboratory (NCATS/FGL), 2020).
Hit rate of the full screen: of about 53,000 sequences, about 3,700 (7%) were called active.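 Rule for the calls: active = gene knockdowns whose robust z-score for IL-1 alpha signal is at least 2 or at most -2, so actives lie on both sides; inactive = the rest.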 Some of the results follow.

Assay: Components of the Cytosolic LPS Sensing Pathway: Gene Identification via Genome-wide siRNA Screen;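 note: robust z of the log signal after scaling to non-targeting control siRNA wells of the plate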
Conditions: RAW264.7 macrophages, IL-1a HTRF, actives lie on both sides, screened at 100 nM (by protocol), cells primed 5 h with Pam3CSK4 first
Method in brief: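 Supernatant IL-1a by HTRF from RAW264.7 cells primed with Pam3CSK4 (5 hours) and transfected with LipidA (24 hour) after 48h siRNA knockdown at 100 nM; cell viability checked with CellTiter-Glo.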

z-score, active:
GCAAGAUCCCGACACAUACTT against Tead4 -2.22
GGCCGGUGCCUUUUAUUCUTT against Spib 3.26
GCCUUCUUGAACUGAAAGATT against Spc24 -2.04
GGACAACACUGUCAAUCAUTT against Olfr922 -2.39
GCGAUGAGAUUGUUGCUGUTT against Ttc33 2.32
CCUCGAGUGGUUGGAUAAGTT against Vps25 -2
GCCACAACAACUUGAGCAGTT against Amigo1 2.36
GGCAUUGGAUCUUCAUUUUTT against Slc18a1 2.35

z-score, inactive:
GGUGUCGAAGAUCACGUCATT against Abhd17a 0.169
GGGCAUUUGGCCUUUCUCATT against Cpsf4 -0.905
AUAACCCAGUUCAUCCUCCTT against Olfr1431 0.0164
GGAAGAAACUAACCACAACTT against Ikzf1 0.906
GGAAAAGCAACCAUGUUCUTT against Spon1 -0.752
GGAUAACCAUUCAGUAUUATT against Polq 0.0331
GGACGUGUGCUCCUUCUUATT against Samhd1 1.62
GGCAUUCUCAAGAAAAAGUTT against Nuak2 1.25
GGAUGGACCUGACUUUCAATT against Txn2 0.366
GCCGCCUCAAACUGGAUAATT against Hdac7 -1.6
GCCUCAGUCCGAUAAAGAGTT against Emcn -0.662
CGAAGUCCAAAGCCCAGUATT against Klhdc8b 0.87
GCCCGGCGAUCUGAAUGUATT against Fchsd2 -0.149
GCCAGCUUCCGUGUUUGUUTT against Nfkb1 1.1
CCACUCUCUAGUCCUCAACTT against Svs3a 0.189
GGGCAGGGAUGUUUAGAUCTT against Homer2 0.499
CGAAGCACAUAAACUAAAGTT against Ero1a 0.629
GCCCACUUCCGAAUCAAUATT against Mrpl52 -0.793
CCUAUGCUAUAGCAGUCUCTT against Oaz1 -0.482
GCUACGAACUAAUUGAAAATT against Atp8a1 0.0292
GGUACCAUAUCUGUGAACATT against Nrxn3 -1.25
GGCUAGCCAUCCAAAAAGATT against Pcare 1.07
GGACCUGAAGAAGCAUGGUTT against Mb -1.1
GGAUAACCUCCUUACCGUCTT against Eif1ad -0.738
CCUAAGGUAGUUUUACCCUTT against Shbg 0.428
GGUCAAUUCUUUGUGAUGATT against Usf1 -0.609
GGCCAAACUUAAUCAACCUTT against Larp7 -0.611
GGAUCUUUGCCAAGAAAUUTT against Fmo2 -0.541
GGUCAAAUGAAAGCUCAAGTT against Ppm1d -1.66
GGCAUACCAAAGGUAUGAUTT against Serpine1 -0.885
GGCCUCAAGAAUGUAACAGTT against Psmf1 -1.07
GGUCAAAGCCUUUCAUUAUTT against Arhgap45 0.905
GCUGAAGUAGGGUUUAUUATT against Gdap10 0.786
GCAAGACCCUUCGAGUGAATT against Nkd2 -1.2
GGCCUUUUACAAUGAACAUTT against Itgax -0.43
GCAUCGAUCUUUCACCUGUTT against Htr4 -0.263
CCUCUUAUCUCACAUGCUATT against Ica1 -0.0733
GGCUAUCAUCAAGAAGGCUTT against Utp6 0.249
GGUUGACACUGUUGCUUAUTT against Ofcc1 -0.251
GGACACAGAUCUGAUGACCTT against Nkain3 -1.41
GGUGCACUCGUACUUGACUTT against Mgat4b -0.035
CGAUUUUACCAACCGCUGCTT against Chtf18 0.702
GGAUUUCUAGUCUCCUCUUTT against Slc25a11 -1.32
GGUACGACAAGGAUUGGAGTT against Arhgap18 0.773
GCAACAUGUAGGCAACAUCTT against Tmx2 -0.179
GGGCACAGGCAACAUGCUUTT against Awat2 0.0486
GGAGAACACAAAGUUAUACTT against Prpf39 0.621
GGCCAUAUGUCAAGAAGUUTT against Svs4 -1.24
GGAAAAACUCUUCUUCACGTT against Nphs1 -0.0272
GGGCAGAUUGACUUUUUUGTT against Rragd 0.321
GGUUUUACAUUCUGUGUUUTT against Spata9 -0.898
CCGUUUAUUUAUCAGCUGGTT against Spsb4 -1.18
CCAGAAACACUAGUAAAGGTT against Dppa3 -0.0972
GGAUACAGAGUAUUUCAAGTT against Rtkn -1.01
GCCAAAGUACUCUUACAAGTT against Tfip11 -1.49
GGCACUAAGACCUGUUUUGTT against Msx2 0.83
GGCUCUGAGUACCUGUGGATT against Olfr646 -0.234
GGAUCUGACAGCUCAUUUUTT against Casp7 1.01
GGGAAAACACAGAAUGCUATT against Mpc1 -0.565
GGAUGAUAUGGAUUCACAATT against Clgn -1.82
GGUGUCAACUUUAUUCUUUTT against Rab1a 0.813
GGACUUGGACCAAUAGAAGTT against Tmem239 -1.29
CCAAAAAGAUUUGGAUCUCTT against Nr2f6 0.142
GCCUGUGUGCUGUUGUGUUTT against Krtap5-1 1.33
GGUCACCUACUGCUCAAACTT against Dnajc3 -0.649
GGUGGUGCAGGGAUUACAATT against Rsad2 0.806
GCUGUAAUGCUAAUGACAUTT against Gpr22 1.23
GGACCAAAGUUCUAAGUUUTT against Antxrl 1.47
GAAAGAAUCUAGAAAAGUGTT against Lce1d 0.912
GGUCAUCUCCUAUGGAAAUTT against Fam118b 0.819
GGCUUCUAAAAAUUUCACATT against Tmprss11e 0.221
GGAUUUGACAGGUUUGGAATT against Gnptab 0.185
CGAGGAUUACAGAGGAAACTT against Dut 0.717
GGCCCAAUCUCAAGAGGAUTT against Tnfaip8l3 0.285
GGAAAAGGUGACCUGUCUCTT against Slc44a1 -1.77
GGGUAUGCAGAAGGGAACATT against Nrap 0.424
GGAAGAAGCCACAAUCAACTT against 1110032A03Rik 1.79
GCUUGUUAACCGACUAUAUTT against Fez2 -1.36
GGAUUUUCAAUGCUGUAUGTT against Prkag2 -0.11
GGGACAAGGCCUCGAUAUUTT against Ggps1 0.958
GAUUGGAGUGAAGAAACGUTT against Fkbp2 -1.28
GGCUAUGGCUGAUAAGCAUTT against Gtsf2 0.407
GGUACAGUUAUUGAAGUGATT against Nsa2 -1.06
GGCUUUAAGGUGUUUUUCATT against Slc25a48 -0.0754
CGACCACAGCAUAUAUGUUTT against Mapkbp1 0.635
GGGUGCAUAAGCAAGCUGUTT against Nkiras2 -0.992
CCAGCGUGAUAGCUAAGAATT against Trmt2b 1.97
CCACUUUGACAGGAGGAAGTT against Actn2 0.721
GAUCAAAAGCCUUCAACACTT against Olfr910 -1.3
CCUCUGUGUUAUUUUGCAUTT against Pgm1 0.578
CCCAUAUGAGCUGAAAGCUTT against Il1b -0.878
GGUUUUGCAUUUCGGAGAATT against Ccdc59 -0.223
CCUAAUAGUGCCUAUGAUUTT against Smc2 -0.559
GCCUAACUAGCAAUAAAAGTT against Khdc4 -0.369
GGAAGGAUUUAUCUUAGUUTT against C4bp -0.192
GGAUCCUAAACACUUCAAGTT against Pitpnc1 0.612
GCAGCGGCUUUACAAGGAUTT against Elob -0.233
GGACUGUUUGAACAUCUGGTT against Tomm7 -0.318
GGGCUUGAAAUUGAAAUGUTT against Ccl9 -1.09

Quoted at random: three entries already listed, in no set order.
z-score, inactive:
GCCAGCUUCCGUGUUUGUUTT against Nfkb1 1.1
GGCUAUGGCUGAUAAGCAUTT against Gtsf2 0.407
GGUACCAUAUCUGUGAACATT against Nrxn3 -1.25

No new results follow: an excerpt of the list.
z-score, inactive:
GGAUUUCUAGUCUCCUCUUTT against Slc25a11 -1.32
GGUACGACAAGGAUUGGAGTT against Arhgap18 0.773
GCAACAUGUAGGCAACAUCTT against Tmx2 -0.179
GGGCACAGGCAACAUGCUUTT against Awat2 0.0486
